In article doi:10.1101/2023.09.01.555812:
No constants are given. Whether binding was seen depends on the method and setting. In cells and extracts the contact can be indirect. Some results given as binding are weak or reduced against the parent protein; the word gives no strength.

Chains of the proteins cited; added tags and fusions are not shown. Residues count along the entry.
UniProt P10912, residues 19-638: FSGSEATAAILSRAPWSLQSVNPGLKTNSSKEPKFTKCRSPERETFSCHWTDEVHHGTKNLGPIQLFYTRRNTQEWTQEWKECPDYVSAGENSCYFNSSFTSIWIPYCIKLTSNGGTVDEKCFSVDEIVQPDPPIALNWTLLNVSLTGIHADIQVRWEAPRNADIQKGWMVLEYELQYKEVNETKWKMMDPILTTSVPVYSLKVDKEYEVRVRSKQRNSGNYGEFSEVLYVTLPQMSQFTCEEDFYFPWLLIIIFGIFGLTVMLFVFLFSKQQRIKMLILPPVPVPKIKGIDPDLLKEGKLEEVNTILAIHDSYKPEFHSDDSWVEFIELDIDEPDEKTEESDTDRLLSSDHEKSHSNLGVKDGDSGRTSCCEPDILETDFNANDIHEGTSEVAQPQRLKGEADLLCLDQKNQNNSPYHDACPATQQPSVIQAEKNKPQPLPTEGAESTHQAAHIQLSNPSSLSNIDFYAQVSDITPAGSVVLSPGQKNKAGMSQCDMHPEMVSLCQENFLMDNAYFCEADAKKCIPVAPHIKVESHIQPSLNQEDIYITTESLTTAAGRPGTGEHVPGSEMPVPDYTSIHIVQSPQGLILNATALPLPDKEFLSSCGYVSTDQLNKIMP

Target: T1, human prolactin receptor (human (endogenous in T47D)) (UniProt P16471)
T1 sequence: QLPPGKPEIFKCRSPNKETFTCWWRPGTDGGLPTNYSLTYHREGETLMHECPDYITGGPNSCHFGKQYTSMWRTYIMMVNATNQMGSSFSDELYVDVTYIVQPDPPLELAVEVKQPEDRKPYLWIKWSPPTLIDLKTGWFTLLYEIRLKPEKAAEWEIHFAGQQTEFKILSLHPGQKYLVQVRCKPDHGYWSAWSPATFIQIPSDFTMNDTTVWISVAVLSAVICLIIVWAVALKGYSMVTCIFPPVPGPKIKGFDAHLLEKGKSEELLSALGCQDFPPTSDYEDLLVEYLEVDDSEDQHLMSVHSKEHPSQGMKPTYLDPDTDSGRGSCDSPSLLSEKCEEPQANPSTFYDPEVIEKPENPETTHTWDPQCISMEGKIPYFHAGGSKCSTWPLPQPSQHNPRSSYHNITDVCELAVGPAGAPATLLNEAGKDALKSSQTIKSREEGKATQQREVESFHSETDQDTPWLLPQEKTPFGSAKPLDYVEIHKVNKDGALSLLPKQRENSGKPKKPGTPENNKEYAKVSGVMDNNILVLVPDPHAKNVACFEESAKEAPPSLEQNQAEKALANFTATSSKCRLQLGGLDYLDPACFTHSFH
Test: proximity ligation

## human growth hormone receptor (from UniProt P10912 19-638)
  binding: binds
